Data taken from patent publication US20260314594A1, “METHODS OF ENHANCING POLLEN VIABILITY OF PLANTS” (ACADEMIA SINICA, priority 2022, published 2026).

Experiment: HOPA content of Easter lily stigma exudate (SE)
Parameters: species or system Easter lily (Lilium longiflorum Thunb. cv White Heaven)

CC(C)(CO)C(O)C(=O)NCCCC(=O)O (centres unmarked) [HOPA, hopantenic acid]
HOPA content of 1/10 diluted stigma exudate (1/10 SE (v/v)): about 785 ppm
HOPA content of stigma exudate (Easter lily stigma exudate, undiluted): about 7,854.8±659.08 ppm
